The results in this text go back to article PMC8533794, “Selection of a Nuclease-Resistant RNA Aptamer Targeting CD19”.

For data set [1], the target named is T1, CD19 on transfected COS-7 cells (human) (UniProt P15391).
T1 sequence: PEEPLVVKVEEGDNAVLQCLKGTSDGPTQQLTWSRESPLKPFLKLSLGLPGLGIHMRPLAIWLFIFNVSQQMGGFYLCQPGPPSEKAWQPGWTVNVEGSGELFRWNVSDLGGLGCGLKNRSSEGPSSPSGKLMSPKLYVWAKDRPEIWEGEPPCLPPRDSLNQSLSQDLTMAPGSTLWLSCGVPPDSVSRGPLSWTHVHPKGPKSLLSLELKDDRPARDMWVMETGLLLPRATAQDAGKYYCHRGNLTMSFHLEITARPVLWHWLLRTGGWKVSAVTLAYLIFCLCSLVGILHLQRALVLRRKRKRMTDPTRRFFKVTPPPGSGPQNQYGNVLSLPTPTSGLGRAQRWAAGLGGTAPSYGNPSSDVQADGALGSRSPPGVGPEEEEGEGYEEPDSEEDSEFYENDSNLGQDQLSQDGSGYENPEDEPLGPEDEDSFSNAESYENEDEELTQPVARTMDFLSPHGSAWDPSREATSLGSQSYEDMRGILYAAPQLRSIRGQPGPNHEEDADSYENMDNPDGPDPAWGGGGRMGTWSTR
The experiment in a line: cell binding RT-qPCR. The following applies: 200 nM aptamer, poly(I); 2'-fluoro pyrimidines; cell binding: serum-free medium, 37 C, 30 min, with poly(I) 0.1 ug/uL (qPCR) or tRNA 0.4 ug/uL plus 100 nM Ctrl Apt (FACS); protein on the cell surface.

For data set [2], the target named is T2, endogenous CD19 of MEC-1 cells (human (MEC-1 B-CLL cell line)) (UniProt P15391).
T2 sequence: T1 sequence
The data set is described as follows: pull-down, anti-CD19 immunoblot. To be noted: 400 nM aptamer on MEC-1 cells, then lysis; 2'-fluoro pyrimidines; pull-down lysis: 10 mM Tris-HCl pH 7.5, 200 mM NaCl, 5 mM EDTA, 0.1% Triton X-100; protein on the cell surface; label: 3' biotin (BioBB).

The exact form of at least one protein or probe is not confirmed. At least one result comes from cells or an extract, where the contact may be indirect. A negative result means that nothing was seen under these conditions.

Regarding “GGGAGACAAGAAUAAACGCUCAACGUGCAACGCACAAAUUCUUGAUCAUCUCAAUGAUGUGUGCUUUCGACAGGAGGCUCACAACAGGC [B97]”, the binding result in data set [1] is given as “no binding”. Regarding “GGGAGACAAGAAUAAACGCUCAACGUUGACAACAAAUGACGAUCGUCAACAUGAUGCUUGAGCCCUGUUCGACAGGAGGCUCACAACAGGC [B85]”, the binding result in data set [1] is recorded as “binds”. “GGGAGACAAGAAUAAACGCUCAAUGAUAGACAUUCGGUGCUCUCUUUCAUUGACCGUUCACCUGUUGUUCGACAGGAGGCUCACAACAGGC [B88]”: the binding result in data set [1] is “binds”. Consider “UGAGCCCUGUUCGACAGGAGGCUCA [B85.T2 (Biotin)]”, for which the binding result in data set [2] is listed as “binds”. In the case of “UUCGUACCGGGUAGGUUGGCUUGCACAUAGAACGUGUCA [Ctrl Apt (Biotin)]”, the binding result in data set [2] is reported as “no binding”.
